Data published in PMC5547131.
These are yes or no findings as the source states them, for the method shown. For some assays here: In cells and extracts the contact can be indirect. Some binding calls cover weakened binding; strength is not graded here. For some assays here: Sequences can lack the tags named with a protein.

The chains behind the UniProt entries cited, without tags or fusion partners. Where a name states a change or a piece, a line headed by the entry shows the natural chain unless it says otherwise. A line that says so, or that is headed by a name, gives the form on record, which may keep a tag or linker. Residues count along the entry.
recombinant hVEGF-C (P49767, residues 112-227): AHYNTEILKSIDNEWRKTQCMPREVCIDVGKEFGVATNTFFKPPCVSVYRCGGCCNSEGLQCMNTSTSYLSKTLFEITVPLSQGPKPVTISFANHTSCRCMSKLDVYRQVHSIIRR
Human VEGF-C156S (P49767, form named): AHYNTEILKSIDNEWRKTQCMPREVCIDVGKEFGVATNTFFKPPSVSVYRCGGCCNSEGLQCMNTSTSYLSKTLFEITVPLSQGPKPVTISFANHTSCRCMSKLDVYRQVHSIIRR
UniProt P35916, residues 25-1363: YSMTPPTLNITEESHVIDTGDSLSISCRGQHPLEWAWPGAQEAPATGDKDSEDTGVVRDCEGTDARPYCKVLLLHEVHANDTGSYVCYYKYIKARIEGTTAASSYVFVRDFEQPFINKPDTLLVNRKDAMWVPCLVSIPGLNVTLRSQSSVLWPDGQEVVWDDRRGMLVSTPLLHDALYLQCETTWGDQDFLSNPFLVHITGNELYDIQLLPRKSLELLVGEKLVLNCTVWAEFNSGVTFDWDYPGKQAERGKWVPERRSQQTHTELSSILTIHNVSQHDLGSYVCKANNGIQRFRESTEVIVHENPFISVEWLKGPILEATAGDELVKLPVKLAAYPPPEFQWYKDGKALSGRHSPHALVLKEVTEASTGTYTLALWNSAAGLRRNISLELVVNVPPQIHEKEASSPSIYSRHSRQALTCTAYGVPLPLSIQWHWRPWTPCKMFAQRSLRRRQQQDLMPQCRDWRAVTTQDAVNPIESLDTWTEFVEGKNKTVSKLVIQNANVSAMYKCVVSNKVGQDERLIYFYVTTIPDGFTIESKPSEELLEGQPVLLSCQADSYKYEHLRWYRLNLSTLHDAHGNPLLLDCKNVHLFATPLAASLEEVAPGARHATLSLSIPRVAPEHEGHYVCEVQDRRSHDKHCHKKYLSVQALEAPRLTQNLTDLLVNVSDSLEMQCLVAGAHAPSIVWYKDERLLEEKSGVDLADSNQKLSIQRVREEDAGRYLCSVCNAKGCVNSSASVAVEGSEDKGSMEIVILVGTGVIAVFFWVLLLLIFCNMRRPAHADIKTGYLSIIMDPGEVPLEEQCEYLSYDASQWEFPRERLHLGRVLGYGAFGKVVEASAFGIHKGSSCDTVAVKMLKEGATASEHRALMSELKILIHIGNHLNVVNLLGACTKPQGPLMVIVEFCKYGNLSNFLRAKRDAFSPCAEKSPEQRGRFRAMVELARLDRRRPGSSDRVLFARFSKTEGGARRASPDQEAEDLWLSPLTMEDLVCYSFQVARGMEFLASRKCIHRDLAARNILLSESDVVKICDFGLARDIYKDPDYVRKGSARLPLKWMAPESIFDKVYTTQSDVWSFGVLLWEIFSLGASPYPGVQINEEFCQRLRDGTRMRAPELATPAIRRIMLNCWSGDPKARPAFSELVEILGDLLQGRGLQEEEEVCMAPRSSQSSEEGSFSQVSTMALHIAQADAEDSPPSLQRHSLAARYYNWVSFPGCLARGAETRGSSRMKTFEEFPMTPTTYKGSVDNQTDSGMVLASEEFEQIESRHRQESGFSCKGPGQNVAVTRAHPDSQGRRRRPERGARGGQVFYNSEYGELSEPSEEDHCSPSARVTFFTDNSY

What was measured:
[1] = target: T1, CD146 (human (endogenous in HDLEC)) (UniProt P43121); experiment: co-IP; HDLEC lysates in RIPA buffer; precipitated with anti-CD146 mAb AA1 or control mIgG overnight at 4 °C, protein G sepharose, WB; cells in normal culture medium or pre-incubated with VEGF-C156S (100 ng/ml)
T1 sequence: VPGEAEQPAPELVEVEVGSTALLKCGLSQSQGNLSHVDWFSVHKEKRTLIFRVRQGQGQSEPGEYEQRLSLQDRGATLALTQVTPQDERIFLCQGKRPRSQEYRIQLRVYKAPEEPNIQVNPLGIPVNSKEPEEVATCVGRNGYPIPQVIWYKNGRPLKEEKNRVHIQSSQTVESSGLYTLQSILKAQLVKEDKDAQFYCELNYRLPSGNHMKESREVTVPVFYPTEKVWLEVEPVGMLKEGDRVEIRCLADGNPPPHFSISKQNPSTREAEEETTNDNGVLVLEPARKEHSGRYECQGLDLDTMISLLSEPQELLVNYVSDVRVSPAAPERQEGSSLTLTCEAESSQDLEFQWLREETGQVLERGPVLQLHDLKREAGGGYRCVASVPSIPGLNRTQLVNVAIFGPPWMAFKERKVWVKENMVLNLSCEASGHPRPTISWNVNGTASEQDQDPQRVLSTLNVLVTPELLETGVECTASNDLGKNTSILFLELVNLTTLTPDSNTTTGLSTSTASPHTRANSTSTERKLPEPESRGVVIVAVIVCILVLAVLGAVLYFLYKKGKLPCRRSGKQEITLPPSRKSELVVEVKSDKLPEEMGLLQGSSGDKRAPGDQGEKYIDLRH

[2] = target: T1, CD146 (human (endogenous in HDLEC)); experiment: co-IP; HDLECs incubated with VEGF-C156S (100 ng/ml) conditional medium, then lysed in RIPA buffer; precipitated with anti-CD146 mAb AA1 or control mIgG, protein G sepharose, WB; only the binder purified
[3] = target: T2, Fc-CD146 (UniProt P43121); experiment: pull-down; purified Fc, Fc-CD146 or Fc-VEGFR-3 (200 ng/ml each) with recombinant hVEGF-C (200 ng/ml) 1 h at 4 °C in HEPES buffer (0.05 M HEPES, 0.15 M NaCl, 0.001% Tween 20, pH 7.4), then held on protein G sepharose; WB; both purified
T2 sequence: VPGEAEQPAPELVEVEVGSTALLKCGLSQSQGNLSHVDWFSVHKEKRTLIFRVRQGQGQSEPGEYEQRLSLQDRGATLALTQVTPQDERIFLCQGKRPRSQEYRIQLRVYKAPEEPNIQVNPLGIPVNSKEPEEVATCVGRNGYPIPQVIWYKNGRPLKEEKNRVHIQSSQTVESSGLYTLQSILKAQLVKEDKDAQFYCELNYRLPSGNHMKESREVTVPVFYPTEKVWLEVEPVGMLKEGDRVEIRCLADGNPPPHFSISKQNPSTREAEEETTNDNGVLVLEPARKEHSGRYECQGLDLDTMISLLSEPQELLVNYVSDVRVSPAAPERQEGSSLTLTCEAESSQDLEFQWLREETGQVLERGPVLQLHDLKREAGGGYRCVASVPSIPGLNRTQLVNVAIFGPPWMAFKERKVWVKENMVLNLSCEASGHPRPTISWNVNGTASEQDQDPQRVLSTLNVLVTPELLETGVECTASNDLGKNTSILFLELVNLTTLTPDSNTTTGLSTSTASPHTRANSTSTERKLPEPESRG

[4] = target: T1, CD146 (human (endogenous in HDLEC)); experiment: Western blot of the CD146 dimer; serum-starved HDLECs treated with VEGF-C156S for 20 min at different concentrations; how the dimer was kept for the blot is not told

VEGF-C (from UniProt P49767 112-227) (ligand)
binding [1]: binds

Human VEGF-C156S (from UniProt P49767 112-227) (ligand)
binding [2]: binds

recombinant hVEGF-C (from UniProt P49767 112-227) (ligand)
binding [3]: binds

CD146 (from UniProt P43121 24-646) (receptor)
binding [4]: binds

VEGFR-3 (from UniProt P35916 25-1363) (receptor)
binding [1]: binds
